Percent effect of library compounds

Chains of the proteins cited; added tags and fusions are not shown.
UniProt P9WFT3, whole entry: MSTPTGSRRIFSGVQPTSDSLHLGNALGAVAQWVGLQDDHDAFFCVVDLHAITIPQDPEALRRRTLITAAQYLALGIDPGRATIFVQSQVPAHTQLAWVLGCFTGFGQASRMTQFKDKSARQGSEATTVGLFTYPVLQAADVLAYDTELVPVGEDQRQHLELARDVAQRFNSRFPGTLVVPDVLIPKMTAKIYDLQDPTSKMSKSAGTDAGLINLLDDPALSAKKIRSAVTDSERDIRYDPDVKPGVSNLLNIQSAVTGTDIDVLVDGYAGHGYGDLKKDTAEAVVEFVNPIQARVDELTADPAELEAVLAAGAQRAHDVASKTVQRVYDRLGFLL

The values are deposited in ChEMBL (CHEMBL3988442, “University of Dundee, Small-Polar-MMV Screening Library” (2021)).

Results are given as percent effect.
The controls that fix the scale are not given in the record; negative values are as filed.
Compounds were drawn at random from those tested, without regard to their results.

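Enzyme assay of tryptophanyl-tRNA synthetase; the read-out is not stated. Target: Tryptophan-tRNA ligase, Mycobacterium tuberculosis (UniProt P9WFT3). Tested at 10 µM. Direction is not recorded; retested compounds ran higher, which suggests that high means inhibition. About 65,000 compounds were tested under these conditions; 0.098% (about 64) showed 50% or more at least once.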

| structure | Percent Effect |
|---|---|
| `O=C(NCc1ccc(Cl)s1)c1cc(CN2CCCC(O)C2)on1` (stereo not drawn) | 0.698% |
| `CCC1=N[C@@]2(CC[C@@H]3CN(Cc4ccc(Cl)cc4)C[C@@H]32)C(=O)N1` | 0.959% |
| `CCn1nc(C)c2ncnc(N(C)C)c21` | 5.04% |
| `CCc1ncc(C(=O)N2CCN(c3cnn(C)c(=O)c3)CC2)cn1` | 1.053% |
| `c1cnc(NCc2n[nH]c3c2CCN(Cc2ccncc2)C3)nc1` | -1.841% |
| `COCCNC(=O)CN1CCCC1c1c(C)nn(C)c1Cl` (stereo not drawn) | -1.278% |
| `Cc1cc(C)n(CCNc2ncnc3c2NC(=O)CN3)n1` | 4.203% |
| `CCN(CC)S(=O)(=O)NCC(O)c1c(Cl)cccc1Cl` (stereo not drawn) | 0.4045% |
| `COc1cccc(CN(C)C(=O)NCc2c(C)cc(C)[nH]c2=O)c1` | -7.484% |
| `COCCC(=O)N1CCCCC1c1ccc(F)cc1` (stereo not drawn) | 4.901% |
| `CN(Cc1ccsc1)C(=O)c1cc2c([nH]c1=O)CCC2` | 1.645% |
| `CC(Cn1cncn1)NCc1csc2c1CCCC2` (stereo not drawn) | -5.067% |
| `O=C1NCCCCC1SCc1coc(-c2ccccc2)n1` (stereo not drawn) | -16.45% |
| `CS(=O)(=O)N1CCN(c2cc(-n3cccc3)ncn2)CC1` | -2.25% |
| `Cc1nc(NC(=O)OC(C)(C)C)sc1C#N` | -4.964% |
| `CCCS(=O)(=O)N1Cc2nccn2CC(CN2CCCC2)C1` (stereo not drawn) | -7.052% |
| `Cc1cnn(C2CCCN(C(=O)CCNS(C)(=O)=O)C2)c1` (stereo not drawn) | 18.13% |
| `CC(C)NC(=O)[C@]12COC[C@H]1CN(Cc1cnn(C)c1)C2` | -0.9982% |
| `Cn1cc(CN2CC[C@H]3C[C@H](c4nc(C5CC5)cs4)O[C@@H]3C2)cn1` | 2.237% |
| `Cc1ncc(C(=O)NCCNc2ccncc2)s1` | 4.993% |
| `CCCNC(=O)c1ccc(NC(=O)c2cccc(OCC)c2)cc1` | -6.734% |
| `Cc1noc(C)c1C(=O)N[C@@H]1CC[C@@H](Oc2ccccc2)[C@@H]1O` | -4.243% |
| `CCNC(=O)Cc1c(C)nc2c(c1C)c(=O)[nH]n2C` | 5.44% |
| `CNS(=O)(=O)CC(=O)N(C1CCCC1)C1CC1` | 5.008% |
| `Cc1ccc(NC2CCN(C(=O)CCc3c(C)noc3C)CC2)nn1` | -2.531% |
| `COc1ccc(C)cc1NC(=O)Nc1cnc(O)nc1O` | 3.732% |
| `c1cnc(NCc2n[nH]c3c2CCN(Cc2cccnc2)C3)nc1` | 3.973% |
| `COc1nc(N2CCNCC2)ncc1Br` | 1.65% |
| `Cc1[nH]c(=O)c(C#N)cc1C(=O)N1C[C@@H](CN2CCCC2)C[C@H](CO)C1` | -1.587% |
| `CCn1nnc2c1CCN(S(C)(=O)=O)C2COCc1ccccc1` (stereo not drawn) | 1.903% |
| `Cc1ccnc(OC[C@]23COC[C@H]2CN(C(=O)c2ccnn2C)C3)n1` | 1.724% |
| `CCCn1ccnc1-c1cccc(NC2CCOC2)c1` (stereo not drawn) | 0.9524% |
| `Cc1nn(C)c(C)c1OCC(=O)NCC(O)Cc1ccccc1` (stereo not drawn) | 0.09099% |
| `Cc1cccnc1CCNCC1(O)CCCN(CC2CCCCC2)C1=O` (stereo not drawn) | 1.227% |
| `Cc1ccc(N2CCN(CC3CC3)C3(CCN(C(C)C)CC3)C2=O)cn1` | -4.207% |
| `CN(C)Cc1ccc(C(=O)N2CCCC(n3cccn3)C2)cc1` (stereo not drawn) | 5.045% |
| `CCNC(=O)C1CCCN(Cn2nc(C(C)(C)C)ccc2=O)C1` (stereo not drawn) | 3.152% |
| `C1CCCN(c2nc(C3CC3)no2)CC1` | -3.815% |
| `Cc1nnc([C@@H]2C[C@H]3CN(C(=O)c4sccc4C)C[C@H]3O2)[nH]1` | -3.344% |
| `COc1ccc(CCNC(=O)CN2CCCC2c2noc(C)n2)cc1` (stereo not drawn) | -9.976% |
| `CN1CC[C@H](c2nnc(-c3cncn3C)o2)C1` | -1.144% |
| `NC(=O)CCC(=O)N1CCc2[nH]nc(-c3ccc4c(c3)OCO4)c2C1` | -2.464% |
| `Cc1ccc(C(=O)N(C)Cc2c(C)noc2C)c(=O)[nH]1` | -1.49% |
| `COc1ncccc1CNC(=O)C1=NN(c2ccccc2)C(=O)CN1` | -1.847% |
| `Cc1[nH]ncc1C(C)NCc1cccnc1` (stereo not drawn) | -1.667% |
| `Fc1ccc(OCCNC2CCN(Cc3ccncc3)CC2)c(F)c1` | 18.21% |
| `CN(C)CC(=O)N1CCC2(CCN(Cc3ccccn3)C2=O)C1` (stereo not drawn) | -3.547% |
| `O=C([C@H]1CCCO1)N1CCCC2(CCN(Cc3ccncc3)C2=O)C1` (stereo partly drawn) | 8.049% |
| `CCCN(C(=O)COCC)c1cccc(C)c1` | -1.288% |
| `COC(=O)c1ccc(N2CCC(c3ccccc3)CC2)nn1` | -5.366% |
| `COc1ncccc1-c1cc(C(N)=O)ccn1` | -1.563% |
| `CCC1CN(Cc2c(O)ccc3oc4c(c23)CCCC4)CCO1` (stereo not drawn) | 5.942% |
| `CNc1cc(C2CCCN2C(=O)c2ccc3oc(=O)n(C)c3c2)ccn1` (stereo not drawn) | 3.083% |
| `CC(C)NC(=O)CCNC(=O)CCc1cc(Br)cs1` | -1.051% |
| `CCc1nc(CN2CCN(C(=O)c3cc(C)nn3C)CC2)cs1` | 1.729% |
| `O=C(Nc1cccnc1-n1cc(Cl)cn1)C1CC1` | -1.19% |
| `O=C(CCc1ccco1)NS(=O)(=O)Cc1ccon1` | -1.143% |
| `NC(=O)COc1ccc(C(=O)N2CCCC(n3ccnc3)C2)cc1` (stereo not drawn) | -11.01% |
| `O=C1NC(C(=O)NCc2cccnc2Oc2ccc(F)c(F)c2)CO1` (stereo not drawn) | 4.897% |
| `Cc1cccc(CNCC2COC3(CCCC3)O2)c1C` (stereo not drawn) | -3.818% |
| `Cc1cc2[nH]c(O)nc2cc1NCc1ccc(F)cc1` | -0.08157% |
| `NC(=O)CC1CCCN(c2cncc(SCc3ccccc3)n2)C1` (stereo not drawn) | 0% |
| `Oc1cc(CNCCN2CCCCC2)nc2c(F)cccc12` | -5.109% |
| `COc1cccc(CSCC(=O)NCc2cccnc2)c1` | -6.425% |
| `CC(CC(=O)N1CCCN(Cc2cscn2)CC1)n1cccc1` (stereo not drawn) | 0.7776% |
| `CC(C)C1CN(C(=O)c2ccncc2)CCS1` (stereo not drawn) | 2.863% |
| `CCN(CC1CCCO1)C(=O)Nc1ccc(OC)c(C)c1` (stereo not drawn) | -8.003% |
| `COCC1c2c(cnn2C)CCN1Cc1ccsc1` (stereo not drawn) | 1.66% |
| `CCc1noc(CC)c1CNC(=O)Nc1cccc([S+](C)[O-])c1` (stereo not drawn) | -8.838% |
| `Cc1cnn(CC2CN(CC(=O)N(C)Cc3ccccc3)CCO2)c1` (stereo not drawn) | -11.03% |
| `CCC(C)NC(=O)Nc1cccc(OCCCC#N)c1` (stereo not drawn) | -5.419% |
| `CN1CCC(N(CCc2ccccc2)C(=O)c2ccc(C#N)cc2)CC1` | -1.711% |
| `Cc1ncsc1CN1CCN(C)C2(CCC(=O)N(CCO)CC2)C1` (stereo not drawn) | -0.2366% |
| `COc1ccccc1-c1ncc(CN2CCC3(CCNCC3)CC2)cn1` | -4.85% |

Once more, the final 6:

{"structure": "CCc1noc(CC)c1CNC(=O)Nc1cccc([S+](C)[O-])c1", "stereo": "stereo not drawn", "Percent Effect": -8.838}
{"structure": "Cc1cnn(CC2CN(CC(=O)N(C)Cc3ccccc3)CCO2)c1", "stereo": "stereo not drawn", "Percent Effect": -11.03}
{"structure": "CCC(C)NC(=O)Nc1cccc(OCCCC#N)c1", "stereo": "stereo not drawn", "Percent Effect": -5.419}
{"structure": "CN1CCC(N(CCc2ccccc2)C(=O)c2ccc(C#N)cc2)CC1", "Percent Effect": -1.711}
{"structure": "Cc1ncsc1CN1CCN(C)C2(CCC(=O)N(CCO)CC2)C1", "stereo": "stereo not drawn", "Percent Effect": -0.2366}
{"structure": "COc1ccccc1-c1ncc(CN2CCC3(CCNCC3)CC2)cn1", "Percent Effect": -4.85}